Measurements as given in the supplement of paper PMC10849652.
The other results are listed elsewhere or left out.

Amino acid sequences for entries named in this document (tags omitted). A change or cut given only in a name is not applied to a line headed by its entry.
UniProt O14579: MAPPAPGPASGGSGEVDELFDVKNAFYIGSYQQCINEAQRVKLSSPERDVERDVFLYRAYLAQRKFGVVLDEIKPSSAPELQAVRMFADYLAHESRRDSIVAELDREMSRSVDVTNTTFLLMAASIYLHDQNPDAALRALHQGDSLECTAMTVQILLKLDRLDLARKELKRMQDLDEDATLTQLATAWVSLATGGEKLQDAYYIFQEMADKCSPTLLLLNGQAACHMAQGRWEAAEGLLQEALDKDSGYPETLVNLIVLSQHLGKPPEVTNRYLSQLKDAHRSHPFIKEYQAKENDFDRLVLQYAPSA
UniProt O95825: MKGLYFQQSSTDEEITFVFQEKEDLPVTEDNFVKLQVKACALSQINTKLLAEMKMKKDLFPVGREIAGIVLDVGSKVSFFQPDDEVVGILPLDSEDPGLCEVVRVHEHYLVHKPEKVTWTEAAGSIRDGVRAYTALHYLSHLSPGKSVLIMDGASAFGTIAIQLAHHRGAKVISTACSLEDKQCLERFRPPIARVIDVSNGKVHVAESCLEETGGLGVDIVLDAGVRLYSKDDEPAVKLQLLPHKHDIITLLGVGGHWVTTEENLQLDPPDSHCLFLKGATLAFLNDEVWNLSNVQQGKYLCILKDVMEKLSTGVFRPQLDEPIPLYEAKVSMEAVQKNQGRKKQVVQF
UniProt O75534: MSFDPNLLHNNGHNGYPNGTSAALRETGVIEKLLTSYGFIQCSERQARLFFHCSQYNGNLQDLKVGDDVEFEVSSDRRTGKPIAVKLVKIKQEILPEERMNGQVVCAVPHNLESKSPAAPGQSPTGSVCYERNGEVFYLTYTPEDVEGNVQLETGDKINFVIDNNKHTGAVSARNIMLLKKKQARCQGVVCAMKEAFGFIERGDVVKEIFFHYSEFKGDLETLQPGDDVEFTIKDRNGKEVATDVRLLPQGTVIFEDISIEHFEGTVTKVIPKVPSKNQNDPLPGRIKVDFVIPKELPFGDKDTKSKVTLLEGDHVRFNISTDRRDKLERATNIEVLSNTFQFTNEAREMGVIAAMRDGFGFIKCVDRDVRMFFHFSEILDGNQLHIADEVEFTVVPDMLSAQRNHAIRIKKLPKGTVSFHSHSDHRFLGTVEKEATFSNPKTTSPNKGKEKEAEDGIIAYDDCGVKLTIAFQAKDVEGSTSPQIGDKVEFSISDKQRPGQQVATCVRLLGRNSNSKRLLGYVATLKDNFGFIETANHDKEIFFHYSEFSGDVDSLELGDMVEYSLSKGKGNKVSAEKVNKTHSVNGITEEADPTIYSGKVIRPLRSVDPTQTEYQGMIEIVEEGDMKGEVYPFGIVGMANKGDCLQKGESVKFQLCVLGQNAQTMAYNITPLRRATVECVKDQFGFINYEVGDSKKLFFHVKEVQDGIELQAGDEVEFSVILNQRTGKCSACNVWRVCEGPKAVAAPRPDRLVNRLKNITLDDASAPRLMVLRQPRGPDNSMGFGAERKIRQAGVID
UniProt A4D0V7: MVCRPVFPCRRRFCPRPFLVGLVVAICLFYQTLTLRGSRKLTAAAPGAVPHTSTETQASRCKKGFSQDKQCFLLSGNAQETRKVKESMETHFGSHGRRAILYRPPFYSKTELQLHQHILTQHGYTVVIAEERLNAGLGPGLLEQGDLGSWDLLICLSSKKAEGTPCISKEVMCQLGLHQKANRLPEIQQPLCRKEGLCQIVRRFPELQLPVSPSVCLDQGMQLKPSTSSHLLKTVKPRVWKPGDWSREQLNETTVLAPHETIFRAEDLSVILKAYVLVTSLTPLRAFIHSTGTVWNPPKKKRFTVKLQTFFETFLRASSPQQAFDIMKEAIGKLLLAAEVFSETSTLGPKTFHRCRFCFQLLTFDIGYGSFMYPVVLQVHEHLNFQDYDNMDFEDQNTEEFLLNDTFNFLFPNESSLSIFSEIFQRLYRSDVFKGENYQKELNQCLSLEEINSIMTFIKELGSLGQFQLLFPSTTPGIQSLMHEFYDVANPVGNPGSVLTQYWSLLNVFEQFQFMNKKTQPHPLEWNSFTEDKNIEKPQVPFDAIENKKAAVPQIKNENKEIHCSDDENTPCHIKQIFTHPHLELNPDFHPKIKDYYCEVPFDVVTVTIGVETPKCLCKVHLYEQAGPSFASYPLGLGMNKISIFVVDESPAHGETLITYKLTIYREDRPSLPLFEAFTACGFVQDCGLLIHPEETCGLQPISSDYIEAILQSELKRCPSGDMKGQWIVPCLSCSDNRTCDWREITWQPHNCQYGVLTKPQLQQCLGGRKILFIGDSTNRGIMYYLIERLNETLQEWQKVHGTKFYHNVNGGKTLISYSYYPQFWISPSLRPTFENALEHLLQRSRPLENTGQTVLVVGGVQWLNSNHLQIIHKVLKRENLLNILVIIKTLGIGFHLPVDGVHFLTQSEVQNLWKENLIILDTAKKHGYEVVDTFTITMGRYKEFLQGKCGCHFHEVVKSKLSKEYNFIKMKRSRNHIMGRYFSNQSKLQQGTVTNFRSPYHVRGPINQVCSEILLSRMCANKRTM
UniProt P41240: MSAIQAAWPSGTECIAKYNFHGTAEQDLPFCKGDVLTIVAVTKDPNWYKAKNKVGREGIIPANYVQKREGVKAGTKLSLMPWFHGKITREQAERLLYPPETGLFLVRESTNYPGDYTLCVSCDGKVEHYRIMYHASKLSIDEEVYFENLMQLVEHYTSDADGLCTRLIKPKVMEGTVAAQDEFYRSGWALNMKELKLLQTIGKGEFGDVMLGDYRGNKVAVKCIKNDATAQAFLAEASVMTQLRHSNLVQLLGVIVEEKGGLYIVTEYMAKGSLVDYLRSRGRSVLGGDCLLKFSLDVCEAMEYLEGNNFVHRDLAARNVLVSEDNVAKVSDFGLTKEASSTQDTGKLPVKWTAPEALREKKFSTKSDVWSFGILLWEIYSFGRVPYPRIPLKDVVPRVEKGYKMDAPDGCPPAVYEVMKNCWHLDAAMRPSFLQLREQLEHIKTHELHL
UniProt Q8IYK4: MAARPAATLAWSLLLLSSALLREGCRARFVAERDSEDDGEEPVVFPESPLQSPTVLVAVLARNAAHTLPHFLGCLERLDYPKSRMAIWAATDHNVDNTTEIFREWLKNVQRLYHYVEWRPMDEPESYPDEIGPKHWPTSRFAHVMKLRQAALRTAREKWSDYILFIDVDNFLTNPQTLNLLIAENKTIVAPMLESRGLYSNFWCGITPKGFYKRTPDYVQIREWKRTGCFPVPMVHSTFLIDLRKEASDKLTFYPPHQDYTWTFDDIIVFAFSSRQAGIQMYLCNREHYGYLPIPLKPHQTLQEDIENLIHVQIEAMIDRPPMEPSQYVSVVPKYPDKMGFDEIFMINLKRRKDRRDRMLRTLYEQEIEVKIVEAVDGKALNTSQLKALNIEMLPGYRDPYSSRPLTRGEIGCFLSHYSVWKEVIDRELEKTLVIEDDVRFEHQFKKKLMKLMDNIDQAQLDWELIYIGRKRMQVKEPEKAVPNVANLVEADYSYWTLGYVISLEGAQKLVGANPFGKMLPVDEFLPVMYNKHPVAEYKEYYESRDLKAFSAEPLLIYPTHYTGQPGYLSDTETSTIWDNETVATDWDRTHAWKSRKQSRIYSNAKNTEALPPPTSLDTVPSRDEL
UniProt P09669, whole entry, looked up: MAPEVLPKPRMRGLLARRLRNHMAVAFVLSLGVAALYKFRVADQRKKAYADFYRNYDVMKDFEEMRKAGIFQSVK
UniProt Q9H9Q2: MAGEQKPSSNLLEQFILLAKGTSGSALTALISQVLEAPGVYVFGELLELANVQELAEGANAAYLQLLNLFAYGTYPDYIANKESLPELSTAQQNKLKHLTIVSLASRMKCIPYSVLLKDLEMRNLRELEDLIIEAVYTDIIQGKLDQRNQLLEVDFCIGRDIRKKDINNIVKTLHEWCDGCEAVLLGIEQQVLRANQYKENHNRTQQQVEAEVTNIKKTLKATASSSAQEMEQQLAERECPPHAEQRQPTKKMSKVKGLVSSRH
UniProt Q9Y646: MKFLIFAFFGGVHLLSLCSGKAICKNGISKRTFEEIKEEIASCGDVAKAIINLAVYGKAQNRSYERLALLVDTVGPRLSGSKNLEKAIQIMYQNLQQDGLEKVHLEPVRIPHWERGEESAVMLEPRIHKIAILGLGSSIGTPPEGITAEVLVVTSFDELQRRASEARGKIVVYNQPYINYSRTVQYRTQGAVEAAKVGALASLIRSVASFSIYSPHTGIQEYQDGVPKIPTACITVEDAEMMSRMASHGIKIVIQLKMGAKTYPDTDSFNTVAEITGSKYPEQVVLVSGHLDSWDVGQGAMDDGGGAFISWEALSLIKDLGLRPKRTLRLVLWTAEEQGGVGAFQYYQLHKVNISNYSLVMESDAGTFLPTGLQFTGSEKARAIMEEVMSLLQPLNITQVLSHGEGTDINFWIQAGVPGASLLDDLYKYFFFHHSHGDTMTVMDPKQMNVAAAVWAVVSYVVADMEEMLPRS
UniProt Q86VU5: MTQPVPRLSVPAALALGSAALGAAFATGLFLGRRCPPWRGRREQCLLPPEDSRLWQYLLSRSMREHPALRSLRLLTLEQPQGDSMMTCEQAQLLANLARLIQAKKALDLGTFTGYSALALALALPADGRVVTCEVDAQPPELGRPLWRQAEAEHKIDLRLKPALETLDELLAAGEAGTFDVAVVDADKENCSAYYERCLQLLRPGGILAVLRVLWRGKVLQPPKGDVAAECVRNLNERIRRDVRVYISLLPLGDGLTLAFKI
UniProt Q03060: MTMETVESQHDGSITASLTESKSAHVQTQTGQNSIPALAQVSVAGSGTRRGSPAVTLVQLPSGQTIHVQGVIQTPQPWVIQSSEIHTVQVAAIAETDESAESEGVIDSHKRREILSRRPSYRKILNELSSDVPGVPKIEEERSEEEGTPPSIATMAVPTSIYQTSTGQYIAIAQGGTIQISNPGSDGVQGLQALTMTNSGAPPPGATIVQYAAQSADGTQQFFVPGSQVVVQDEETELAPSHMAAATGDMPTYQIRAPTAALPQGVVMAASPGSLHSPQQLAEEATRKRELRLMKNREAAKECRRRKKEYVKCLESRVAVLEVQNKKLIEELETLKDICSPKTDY
UniProt Q9H0A8, whole entry, looked up: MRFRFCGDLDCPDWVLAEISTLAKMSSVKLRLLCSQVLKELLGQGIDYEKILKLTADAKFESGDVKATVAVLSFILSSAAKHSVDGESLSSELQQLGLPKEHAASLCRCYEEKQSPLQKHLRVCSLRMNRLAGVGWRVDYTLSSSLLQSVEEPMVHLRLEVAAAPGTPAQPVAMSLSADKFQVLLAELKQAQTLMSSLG
UniProt P67870, whole entry, looked up: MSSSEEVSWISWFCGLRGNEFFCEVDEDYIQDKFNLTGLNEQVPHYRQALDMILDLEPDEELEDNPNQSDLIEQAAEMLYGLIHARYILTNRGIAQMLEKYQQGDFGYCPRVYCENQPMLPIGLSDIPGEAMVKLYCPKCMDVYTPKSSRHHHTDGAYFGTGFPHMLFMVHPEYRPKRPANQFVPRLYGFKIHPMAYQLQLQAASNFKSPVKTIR
UniProt Q14019: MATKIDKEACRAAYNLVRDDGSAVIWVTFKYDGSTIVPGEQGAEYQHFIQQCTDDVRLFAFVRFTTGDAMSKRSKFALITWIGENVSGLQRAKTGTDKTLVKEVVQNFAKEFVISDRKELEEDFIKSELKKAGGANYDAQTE
UniProt Q9Y6G5, whole entry, looked up: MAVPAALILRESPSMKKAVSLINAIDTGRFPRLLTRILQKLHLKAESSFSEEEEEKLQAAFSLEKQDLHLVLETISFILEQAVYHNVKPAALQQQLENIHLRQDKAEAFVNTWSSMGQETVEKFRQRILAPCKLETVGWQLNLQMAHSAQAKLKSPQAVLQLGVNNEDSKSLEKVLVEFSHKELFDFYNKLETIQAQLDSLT
UniProt O75718: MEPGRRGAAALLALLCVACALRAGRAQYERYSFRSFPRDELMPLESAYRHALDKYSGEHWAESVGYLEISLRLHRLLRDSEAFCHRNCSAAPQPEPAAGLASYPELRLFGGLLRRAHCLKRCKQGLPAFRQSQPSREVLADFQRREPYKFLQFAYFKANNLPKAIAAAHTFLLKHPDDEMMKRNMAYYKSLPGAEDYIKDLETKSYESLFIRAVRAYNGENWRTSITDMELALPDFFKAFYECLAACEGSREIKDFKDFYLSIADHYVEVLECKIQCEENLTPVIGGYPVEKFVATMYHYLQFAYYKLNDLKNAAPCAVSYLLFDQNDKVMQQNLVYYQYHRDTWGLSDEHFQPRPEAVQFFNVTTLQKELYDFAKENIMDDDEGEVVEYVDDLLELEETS
UniProt P31146: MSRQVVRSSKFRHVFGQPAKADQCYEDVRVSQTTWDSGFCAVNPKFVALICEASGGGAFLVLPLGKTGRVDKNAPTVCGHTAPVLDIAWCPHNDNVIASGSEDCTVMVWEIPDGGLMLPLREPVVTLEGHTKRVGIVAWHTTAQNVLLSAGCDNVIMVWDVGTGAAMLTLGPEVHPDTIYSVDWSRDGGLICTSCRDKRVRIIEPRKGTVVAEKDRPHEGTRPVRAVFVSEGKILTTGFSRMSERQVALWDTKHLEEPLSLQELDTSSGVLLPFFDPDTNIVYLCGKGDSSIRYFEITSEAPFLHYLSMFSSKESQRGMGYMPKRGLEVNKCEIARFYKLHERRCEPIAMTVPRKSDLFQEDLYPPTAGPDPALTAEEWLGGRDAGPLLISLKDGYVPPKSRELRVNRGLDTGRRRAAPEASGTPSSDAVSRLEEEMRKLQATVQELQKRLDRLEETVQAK

Key:
Test in all cases: log2 fold change, soluble protein after heating vs DMSO (PISA); higher = thermal stabilisation; K562 cells, 10 uM, 30 min; active = over 0.2 and 3.5 SD of the protein, either way, in both replicates (recomputed)
[1] = compound: NC(=O)Nc1cc(-c2cccc(F)c2)sc1C(=O)N[C@H]1CCCNC1
How it was run: (§1)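 K562 cells at 2×10^6 cells/mL were treated for 30 min with 10 μM compound, and aliquots were heated for 3 min over 48°C-58°C before pooling. Extraction used PBS with 0.5% NP-40 at 4°C, and soluble protein was the supernatant after 21,000xg for 90 min, measured by TMTpro 16plex LC-MS/MS with channel sums equalised. Thermal stability values, relative to control samples and from duplicates, are log2 fold changes.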

[2] = compound: NC(=O)c1cnc(N[C@@H]2CCCC[C@@H]2N)nc1Nc1cccc(-n2nccn2)c1
How it was run: as §1

[3] = compound: NC1(c2ccc(-c3nc4ccn5c(=O)[nH]nc5c4cc3-c3ccccc3)cc2)CCC1
How it was run: as §1

[4] = compound: NCC(=O)Nc1ccc(-n2nc(C(F)(F)F)cc2-c2ccc3c(ccc4ccccc43)c2)cc1
How it was run: as §1

[5] = compound: Nc1ccccc1NC(=O)c1ccc(CNC(=O)OCc2cccnc2)cc1 [entinostat]
How it was run: as §1

[6] = compound: O=C(CCCCCCC(=O)Nc1ccccc1)NO [vorinostat]
How it was run: as §1

[7] = compound: O=C(CCCCCCNC(=O)c1cnc(N(c2ccccc2)c2ccccc2Cl)nc1)NO [citarinostat]
How it was run: as §1

[8] = compound: O=C(O)c1ccc2c(c1)nc(Nc1cccc(Cl)c1)c1ccncc12 [silmitasertib]
How it was run: as §1

[9] = compound: O=C1NC(=O)C(c2cnc3ccccn23)=C1c1cn2c3c(cc(F)cc13)CN(C(=O)N1CCCCC1)CC2
How it was run: as §1

[10] = compound: c1cc(OCCN2CCCCC2)cc(-c2n[nH]c3ccc(-c4nnc[nH]4)cc23)c1
How it was run: as §1

Measured: log2 fold change

COQ7 (UniProt Q99807)
inactive: [1] -0.12 | [2] -0.009 | [3] -0.076 | [4] -0.007 | [5] 0 | [6] -0.032 | [7] 0.083 | [8] 0.008 | [9] -0.002 | [10] 0.015

CPNE1 (UniProt Q99829)
inactive: [1] -0.007 | [2] 0.008 | [3] -0.16 | [4] -0.021 | [5] -0.023 | [6] -0.029 | [7] 0.025 | [8] 0.034 | [9] -0.053 | [10] 0.016

COPE (UniProt O14579)
inactive: [1] -0.098 | [2] -0.029 | [3] -0.077 | [4] -0.061 | [5] 0.032 | [6] -0.028 | [7] 0.032 | [8] 0.064 | [9] -0.028 | [10] -0.178

CRYZL1 (UniProt O95825)
inactive: [1] 0.056 | [2] 0.016 | [3] 0.002 | [4] 0.045 | [5] -0.015 | [6] -0.028 | [7] 0.02 | [8] 0.016 | [9] -0.03 | [10] -0.002

CSDE1 isoform 4 (UniProt O75534)
inactive: [1] -0.002 | [2] -0.063 | [3] 0.051 | [4] -0.021 | [5] 0.101 | [6] 0.104 | [7] 0.048 | [8] 0.14 | [9] 0.236 | [10] -0.146

COPZ1 isoform 4 (UniProt P61923)
inactive: [1] 0.028 | [2] 0.075 | [3] -0.037 | [4] -0.012 | [5] 0.045 | [6] -0.093 | [7] 0.016 | [8] -0.014 | [9] -0.034 | [10] -0.049

CSNK1A1L (UniProt Q8N752)
inactive: [1] -0.224 | [2] 0.023 | [3] 0.064 | [4] -0.001 | [5] 0.022 | [6] 0.128 | [7] 0.034 | [8] 0.061 | [9] 0.14 | [10] -0.058

CORO1C isoform 3 (UniProt Q9ULV4)
inactive: [1] 0.05 | [2] 0.016 | [3] 0.049 | [4] 0.004 | [5] 0.011 | [6] 0.035 | [7] 0.013 | [8] 0.067 | [9] 0.006 | [10] 0.024

CPED1 (UniProt A4D0V7)
inactive: [1] 0.026 | [2] 0.017 | [3] 0.044 | [4] 0.054 | [5] 0.05 | [6] 0.026 | [7] 0.033 | [8] 0.113 | [9] 0.019 | [10] -0.15

CSK (UniProt P41240)
inactive: [2] -0.084 | [3] -0.156 | [4] -0.083 | [5] 0.006 | [6] 0.023 | [7] 0.03 | [8] 0.046 | [9] -0.048 | [10] -0.014
active: [1] 0.318

CPS1 isoform 3 (UniProt P31327)
inactive: [1] 0.061 | [2] -0.32 | [3] 0.021 | [4] 0.009 | [5] 0.093 | [6] 0.241 | [7] -0.011 | [8] 0.024 | [9] 0.059 | [10] 0.314

COLGALT2 (UniProt Q8IYK4)
inactive: [1] 0.014 | [2] 0 | [3] -0.075 | [4] 0.011 | [5] 0.014 | [6] -0.031 | [7] 0.024 | [8] 0.044 | [9] -0.019 | [10] -0.061

COX6C (UniProt P09669)
inactive: [1] -0.013 | [2] -0.043 | [3] 0.264 | [4] -0.035 | [5] -0.008 | [6] -0.016 | [7] -0.132 | [8] -0.063 | [9] -0.015 | [10] 0.108

CORO7 isoform 3 (UniProt P57737)
inactive: [1] 0.128 | [2] -0.035 | [3] -0.032 | [4] -0.023 | [5] 0.063 | [6] -0.027 | [7] 0.093 | [8] -0.018 | [9] 0.176 | [10] 0.021

CORO1B (UniProt Q9BR76)
inactive: [1] -0.052 | [2] 0.006 | [3] -0.063 | [4] -0.037 | [5] 0.016 | [6] 0.029 | [7] 0.044 | [8] -0.002 | [9] -0.049 | [10] 0.017

COPS7B (UniProt Q9H9Q2)
inactive: [1] 0 | [2] 0.133 | [3] 0.006 | [4] 0.155 | [5] -0.027 | [6] 0.061 | [7] 0.01 | [8] 0.015 | [9] 0.042 | [10] -0.023

COX6B1 (UniProt P14854)
inactive: [1] -0.039 | [2] -0.019 | [3] -0.146 | [4] 0.007 | [5] 0.085 | [6] -0.06 | [7] -0.007 | [8] -0.009 | [9] -0.126 | [10] -0.017

CPQ (UniProt Q9Y646)
inactive: [1] 0.083 | [2] -0.01 | [3] -0.011 | [4] 0.072 | [5] 0.012 | [6] -0.043 | [7] 0.038 | [8] -0.004 | [9] 0.03 | [10] 0.009

COMTD1 (UniProt Q86VU5)
inactive: [1] 0.002 | [2] 0.029 | [3] -0.093 | [4] 0.026 | [5] -0.047 | [6] -0.059 | [7] -0.078 | [8] -0.036 | [9] -0.109 | [10] -0.084

CREM isoform 1 (UniProt Q03060)
inactive: [1] -0.165 | [2] -0.099 | [3] 0.075 | [4] 0.054 | [5] 0.025 | [6] -0.205 | [7] 0.027 | [8] -0.036 | [9] 0.101 | [10] -0.254

COMMD4 (UniProt Q9H0A8)
inactive: [1] -0.017 | [2] 0.059 | [3] -0.172 | [4] 0.078 | [5] -0.011 | [6] 0.096 | [7] 0.029 | [8] 0.046 | [9] 0.138 | [10] 0.043

CPNE2 (UniProt Q96FN4)
inactive: [1] -0.085 | [2] -0.001 | [3] -0.308 | [4] -0.103 | [5] -0.081 | [6] -0.205 | [7] 0.134 | [8] 0.061 | [9] 0.066 | [10] 0.038

CREG1 (UniProt O75629)
inactive: [1] -0.01 | [2] 0.056 | [3] 0.137 | [4] -0.04 | [5] -0.13 | [6] -0.061 | [7] -0.066 | [8] -0.044 | [9] -0.063 | [10] 0.061

2 consecutive entries from above, quoted:
CPQ (UniProt Q9Y646)
inactive: [1] 0.083 | [2] -0.01 | [3] -0.011 | [4] 0.072 | [5] 0.012 | [6] -0.043 | [7] 0.038 | [8] -0.004 | [9] 0.03 | [10] 0.009

COMTD1 (UniProt Q86VU5)
inactive: [1] 0.002 | [2] 0.029 | [3] -0.093 | [4] 0.026 | [5] -0.047 | [6] -0.059 | [7] -0.078 | [8] -0.036 | [9] -0.109 | [10] -0.084

(listing goes on)

CSNK2B (UniProt P67870)
active: [8] 0.377
inactive: [1] -0.017 | [2] 0 | [3] 0.006 | [4] 0.084 | [5] -0.008 | [6] 0.021 | [7] 0.036 | [9] -0.011 | [10] -0.02

COX7A2 (UniProt P14406)
inactive: [1] -0.002 | [2] -0.06 | [3] -0.069 | [4] -0.06 | [5] 0.027 | [6] -0.136 | [7] -0.024 | [8] -0.052 | [9] 0.02 | [10] -0.036

COTL1 (UniProt Q14019)
inactive: [1] -0.033 | [2] -0.042 | [3] -0.053 | [4] -0.078 | [5] 0.002 | [6] 0 | [7] 0.051 | [8] 0.017 | [9] -0.03 | [10] -0.029

COMMD10 (UniProt Q9Y6G5)
inactive: [1] -0.041 | [2] 0.019 | [3] -0.057 | [4] 0.099 | [5] -0.004 | [6] 0.007 | [7] 0.025 | [8] -0.043 | [9] -0.046 | [10] -0.079

CRTAP (UniProt O75718)
inactive: [1] 0.016 | [2] 0.056 | [3] -0.008 | [4] 0.079 | [5] 0.011 | [6] 0.003 | [7] -0.027 | [8] 0.053 | [9] 0.049 | [10] -0.121

CORO1A (UniProt P31146)
inactive: [1] -0.054 | [2] -0.078 | [3] -0.212 | [4] -0.067 | [5] -0.003 | [6] 0.074 | [7] 0.032 | [8] 0.042 | [9] 0.011 | [10] -0.044
